In paper PMC7819943, “Rice protein-binding microarrays: a tool to detect cis-acting elements near promoter regions in rice”:
The other results are listed elsewhere or left out.

Protein sequences, listed by entry. Tags and fused reporters are not part of them.
UniProt Q0JBA9, entry or part of it: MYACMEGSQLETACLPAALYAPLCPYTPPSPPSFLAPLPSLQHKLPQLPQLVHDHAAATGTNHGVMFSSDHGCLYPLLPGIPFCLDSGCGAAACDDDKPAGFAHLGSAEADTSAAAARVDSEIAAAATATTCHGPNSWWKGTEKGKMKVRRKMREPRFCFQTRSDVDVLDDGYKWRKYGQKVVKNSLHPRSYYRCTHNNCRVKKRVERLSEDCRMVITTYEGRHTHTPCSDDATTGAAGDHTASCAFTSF

Target: OsWRKY34 (Oryza sativa, UniProt Q0JBA9 1-250)
Test: protein-binding microarray (RPBM); PBS, 2% BSA, 51.3 ng/ul salmon testes DNA, 50 uM zinc acetate, 200 nM TF, 25 C, 1 h; high values mean tight binding
Conditions: protein: recombinant; tags: N-terminal polyhistidine and DsRed monomer fusion (pET32a); label: CyDye5-dUTP incorporated in the synthesized complementary strand; 3' TTTTT single-stranded linker to array surface; dsDNA, one strand shown
Procedure, shortened: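 Transcription factors were each fused at the N-terminus to a polyhistidine tag plus DsRed and expressed in E. coli BL21-CodonPlus before Ni–NTA purification. Binding to a double-stranded custom Agilent array was carried out with 200 nM protein at 25 °C for 1 h in PBS, 2% BSA, salmon testes DNA and 50 µM zinc acetate. The binding signal is per-feature fluorescence intensity, in arbitrary units, on an Axon 4000B scanner.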

Point of comparison: “AATACTCATCTCCGGAATGCTCACACGGCTAGTCATTTCTCGGAGTCACCTAGTGCAG”, binding signal 8330 fluorescence intensity (a.u.). Against it:
- TCCACCTCCCTGATGGGGCGGAGGTAGAGTATGGAAGGGGCGGAGTCACCTAGTGCAG — lower, 8260 fluorescence intensity (a.u.)
- GCGCTTCAGGTATGCTTTTTCTATGTGCAAACATATCTTACGGAGTCACCTAGTGCAG — higher, 8380 fluorescence intensity (a.u.)
- GCAATTTTTTACGCCCACACGACTGTCCGAGAGCAATATGCGGAGTCACCTAGTGCAG — lower, 8170 fluorescence intensity (a.u.)
- AGCACTCCTCCATCGCCTCCTCTAAGATCGCATTCTCAACCGGAGTCACCTAGTGCAG — higher, 11300 fluorescence intensity (a.u.)
- GATGTTCGTTCAATTCCAGTTCCAGCGGTCCAGCCATTCCCGGAGTCACCTAGTGCAG — higher, 10100 fluorescence intensity (a.u.)
- TCCCTTGTAGTATATTGTTCAGCCTTGACTTTAAAACCACCGGAGTCACCTAGTGCAG — higher, 8820 fluorescence intensity (a.u.)
- TCAGTCATCGTAAATTATTGTGATTTTTTAGGGAGGGGTGCGGAGTCACCTAGTGCAG — higher, 9130 fluorescence intensity (a.u.)
- ATATGTTTTTCCTGTGTTTTGATTTCCTCTGTTTTACACTCGGAGTCACCTAGTGCAG — higher, 9710 fluorescence intensity (a.u.)
- CACATCCGGCACCTGCCATAGTCGACATGTAAATAAAATACGGAGTCACCTAGTGCAG — higher, 8490 fluorescence intensity (a.u.)
- ATAAGTGCAGCCGTGGATATCCGTGCCCAACGTTTGACCGCGGAGTCACCTAGTGCAG — higher, 9080 fluorescence intensity (a.u.)
- GCTCACTGCCTAACGGCCTCATCTACAACTGGTGCTACCGCGGAGTCACCTAGTGCAG — higher, 8900 fluorescence intensity (a.u.)
- CTTTGTCAGATGGTCCTGGGTGTTGCTTCATATATTTGACCGGAGTCACCTAGTGCAG — higher, 9330 fluorescence intensity (a.u.)
- CATCTGGTGACTTACTAATCTACTGTGTTCCTTTTCCAGGCGGAGTCACCTAGTGCAG — higher, 10300 fluorescence intensity (a.u.)
- CACCGCATCACCTTGTCCACCTCGTCGTCCTCGTCCTCGTCGGAGTCACCTAGTGCAG — higher, 15800 fluorescence intensity (a.u.)
- GTCCCAGATGCGCGCGTGTCGCTCCTCATCCTCTCCCGCACGGAGTCACCTAGTGCAG — higher, 8380 fluorescence intensity (a.u.)
- GCCTCGTCGTCTTCCAGCCGGGTTGTGCGGGGCCCCGCTCCGGAGTCACCTAGTGCAG — higher, 11800 fluorescence intensity (a.u.)
- TATCGTATGTACTCTTCATTCTCTACTCCTGCCCGGAAACCGGAGTCACCTAGTGCAG — higher, 12000 fluorescence intensity (a.u.)
- CTCTTCGAGGACACCAACCTCTGCGCCATCCACGCCAAGCCGGAGTCACCTAGTGCAG — higher, 10400 fluorescence intensity (a.u.)
- ATTCCCCATTTCCTTTTTCCCCTTTTGTTGAGAGGGGAATCGGAGTCACCTAGTGCAG — higher, 10500 fluorescence intensity (a.u.)
- TCATTACTGTTTTTCATCGTTTCTGTTCTGAAAATTTCATCGGAGTCACCTAGTGCAG — higher, 9060 fluorescence intensity (a.u.)
- CCCCGTCGCCCTTGCCCCACACCCAGGCGCCGCCGTCGACCGGAGTCACCTAGTGCAG — higher, 10100 fluorescence intensity (a.u.)
- GTATCTCTGCAGCTGACCTGGCCAATCTTTGTTCCTTGCTCGGAGTCACCTAGTGCAG — higher, 14700 fluorescence intensity (a.u.)
- GGCCATTTATCCATTTGGAGGTCAGTGCTAGTCCACCTCTCGGAGTCACCTAGTGCAG — higher, 8560 fluorescence intensity (a.u.)
- TGAGTTATTTTGCGTGTGACCTTGCTTACAGAGTTCCAGTCGGAGTCACCTAGTGCAG — higher, 9180 fluorescence intensity (a.u.)
- GTGGCCTAACTTGACCTTACCAATTTTTGTCAATACCAAACGGAGTCACCTAGTGCAG — higher, 8490 fluorescence intensity (a.u.)
- TTTCTTTTGAGTCTTTATCTCTCTTCTAATTCATGTGTTTCGGAGTCACCTAGTGCAG — higher, 8480 fluorescence intensity (a.u.)
- ACGGCCACGCCTCGCGTCGTCATAGTCGTCTTCCTCGATCCGGAGTCACCTAGTGCAG — higher, 11300 fluorescence intensity (a.u.)
- CTGCAATCTAGCCATCTGTTATCTATCCATGCATCGATGTCGGAGTCACCTAGTGCAG — lower, 8120 fluorescence intensity (a.u.)
- TAGTCGGGTGGATTTATTTGGGTGGATGAACATCAATATACGGAGTCACCTAGTGCAG — lower, 8270 fluorescence intensity (a.u.)
- CCACCCGCCACCTGCTGCCTGCCGCCGGCCTCCCCTCACCCGGAGTCACCTAGTGCAG — higher, 12400 fluorescence intensity (a.u.)
- GTGTGTGTTGTAAGCGTTTATTTTTCTACTTTGTTTGCAGCGGAGTCACCTAGTGCAG — higher, 9500 fluorescence intensity (a.u.)
- ACATTTTGACTTTTGCCAAAGTCAAACTGCTTTAAGTTTGCGGAGTCACCTAGTGCAG — higher, 11900 fluorescence intensity (a.u.)
- CAGCTTGAGTCTTCAGTTTGTTAGTTCAGCTAGTTTTCCTCGGAGTCACCTAGTGCAG — higher, 9020 fluorescence intensity (a.u.)
- GGAGTACTTGTATGCTGTTGTCTGAGGCTATGTTTATTTCCGGAGTCACCTAGTGCAG — higher, 9620 fluorescence intensity (a.u.)
- GCTTATAGGTAGCTTTTGTTATTTCTTTGCTGCTATGAATCGGAGTCACCTAGTGCAG — lower, 8150 fluorescence intensity (a.u.)
- GCATTTCTGTTGACTCTCGCTCGCTTATCATCGTATAGACCGGAGTCACCTAGTGCAG — higher, 10200 fluorescence intensity (a.u.)
- TATCAATTTACTGCTGATTTTGACTTTGTACATTCCGTTTCGGAGTCACCTAGTGCAG — lower, 8130 fluorescence intensity (a.u.)
- GGTTATTGCTCTGTACAAGCTAGCTACTTTTTATAACCATCGGAGTCACCTAGTGCAG — higher, 9810 fluorescence intensity (a.u.)
- ACGCTGCCGTCTCATTTCGCTTTCGTAGAACTTGCTCCAGCGGAGTCACCTAGTGCAG — higher, 8500 fluorescence intensity (a.u.)
- AAAAGCCGGTCTCCTTCATCTTCCCGTCCGTAAACCCTAACGGAGTCACCTAGTGCAG — higher, 10600 fluorescence intensity (a.u.)
- TATACTAATGACTCTTCTTGTGCATATCTTCTCCTTCTCTCGGAGTCACCTAGTGCAG — higher, 10300 fluorescence intensity (a.u.)
